Source: paper PMC10974294, “Addressing the ADME Challenges of Compound Loss in a PDMS-Based Gut-on-Chip Microphysiological System” (Pharmaceutics, 2024)

Test: Compound loss (PDMS ad- and absorption) in cell-free organ-chips
Assay type: in vitro ADME
Settings: 10 µM per drug in cocktail, outlet vs inlet after one hour at 200 µL/h, mean of two experiments
Text: S-1® Organ-Chips from Emulate Inc. (Boston, MA, USA) comprise 2 parallel channels (top and bottom) for cell culture, which are superimposed and separated via a porous membrane, all made of polydimethylsiloxane (PDMS). The 50 µm thick membrane contains pores of a diameter of 7 µm, which are spaced 40 µm apart from each other. In addition, 2 more channels, in which a vacuum can be applied to laterally stretch the cell culture channels, flank the cell culture channels horizontally. The top channel has a size of 1000 × 1000 µm (width × height), a culture area of 28 mm^2, and a volume of 28 µL. The bottom channel has a size of 1000 × 200 µm (width × height), a culture area of 24.5 mm^2, and a volume of 5.6 µL. Both channels share an area of 17.1 mm^2 of the porous membrane as a coculture area. […]
Compound loss experiments in cell-free organ-chips were performed with used chips after removal of the cells and washing-out of previously perfused compounds (Section 4). […] The compound concentrations in the outlets were measured via liquid chromatography-tandem mass spectrometry (LC-MS/MS, Section 2.8) after a period of one hour, with a flow rate of 200 µL/h (manufacturer’s instruction), and relatively compared to the inlet concentrations, and the difference was reported as the percent drug absorbed. […]

Structure (SMILES): COC(=O)C1=C(C)NC(C)=C(C(=O)OC)C1c1ccccc1[N+](=O)[O-] [Nifedipine]
- Compound Loss Bottom Channel (%): 25.6%
- Compound Loss Top Channel (%): 28.3%
